# Experimental data published in the supplement of paper PMC4635364.
# Structures can show the parent of a compound that is named as a salt. This is one part of the list. Single values are uncertain here, since repeats match poorly.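 ReNCell VM, a human fetal ventral-midbrain neural progenitor line, was differentiated without mitogens. Blinded raters scored images stained for doublecortin (early neurons) or tyrosine hydroxylase (dopaminergic neurons) against untreated wells (0 = no change). Scores were averaged across repeats and both raters, and compounds averaging 2 or more were selected as hits for retesting.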
# What was measured:
# ReNCell VM [1] = assay: neuronal differentiation score (DCX+ cell fraction vs untreated, manual image score) (score (-3 to 3)); higher = more neuronal differentiation; conditions: 2 uM, 2 weeks
# ReNCell VM [2] = assay: dopaminergic neuron differentiation score (TH+ cell fraction vs untreated, manual image score) (score (0 to 3)); higher = more TH+ dopaminergic neuron differentiation; conditions: 2 uM, 4 weeks, BDNF 10 ng/ml + GDNF 10 ng/ml
smiles,measurement,setting,value
CCN(CC)CCNc1ccc(CO)c2sc3ccccc3c(=O)c12,neuronal differentiation score,ReNCell VM [1]; library: Spectrum,inactive: 0
same,dopaminergic neuron differentiation score,ReNCell VM [2]; library: Spectrum,inactive: 0
COc1cc(OC)c2c(=O)cc(-c3ccccc3)oc2c1,neuronal differentiation score,ReNCell VM [1]; library: Spectrum,inactive: 0
same,dopaminergic neuron differentiation score,ReNCell VM [2]; library: Spectrum,inactive: 0
CN1CCN(c2nc3cc(C(F)(F)F)ccc3n3cccc23)CC1,neuronal differentiation score,ReNCell VM [1]; library: LOPAC,active: 2
same,dopaminergic neuron differentiation score,ReNCell VM [2]; library: LOPAC,inactive: 0
N[C@H](C(=O)O)[C@H](OCc1ccccc1)C(=O)O (racemic),neuronal differentiation score,ReNCell VM [1]; library: Tocriscreen,inactive: 0
same,dopaminergic neuron differentiation score,ReNCell VM [2]; library: Tocriscreen,inactive: 0
C=CCc1ccccc1OCC(O)CNC(C)C (centres undefined),neuronal differentiation score,ReNCell VM [1]; library: Spectrum,inactive: 0
same,dopaminergic neuron differentiation score,ReNCell VM [2]; library: Spectrum,inactive: 0
CN1C(C)(C)CCCC1(C)C,neuronal differentiation score,ReNCell VM [1]; library: Spectrum,inactive: 0
same,dopaminergic neuron differentiation score,ReNCell VM [2]; library: Spectrum,inactive: 0
CN(C)[C@@H]1C(O)=C(C(N)=O)C(=O)[C@@]2(O)C(O)=C3C(=O)c4c(O)cccc4[C@@](C)(O)[C@H]3[C@H](O)[C@@H]12 [Oxytetracycline dihydrate],neuronal differentiation score,ReNCell VM [1]; library: Prestwick,inactive: 0
same,dopaminergic neuron differentiation score,ReNCell VM [2]; library: Prestwick,inactive: 0
CCOC(=O)[C@@](C)(N)Cc1ccc(O)c(O)c1 [Methyldopate hydrochloride],neuronal differentiation score,ReNCell VM [1]; library: Prestwick,inactive: 0
same,dopaminergic neuron differentiation score,ReNCell VM [2]; library: Prestwick,inactive: 0
NC(=O)N1c2ccccc2CC(O)c2ccccc21 (centres undefined) [Licarbazepine],neuronal differentiation score,ReNCell VM [1]; library: Tocriscreen,inactive: 0
same,dopaminergic neuron differentiation score,ReNCell VM [2]; library: Tocriscreen,inactive: 0
Cc1c(NC(=O)c2cccnc2)c(=O)n(-c2ccccc2)n1C [Nifenazone],neuronal differentiation score,ReNCell VM [1]; library: Prestwick,inactive: 0
same,dopaminergic neuron differentiation score,ReNCell VM [2]; library: Prestwick,inactive: 0
Cl.N[C@@H](CCC(=O)O)C(=O)O [L-Glutamic acid hydrochloride],neuronal differentiation score,ReNCell VM [1]; library: LOPAC,inactive: 0
same,dopaminergic neuron differentiation score,ReNCell VM [2]; library: LOPAC,inactive: 0
CC(C)c1nc(CN(C)C(=O)N[C@H](C(=O)N[C@@H](Cc2ccccc2)C[C@H](O)[C@H](Cc2ccccc2)NC(=O)OCc2cncs2)C(C)C)cs1,neuronal differentiation score,ReNCell VM [1]; library: Spectrum,inactive: 1
same,dopaminergic neuron differentiation score,ReNCell VM [2]; library: Spectrum,inactive: 0
N[C@@H](Cc1ccc(O)cc1)C(=O)O,neuronal differentiation score,ReNCell VM [1]; library: Spectrum,inactive: 0
same,dopaminergic neuron differentiation score,ReNCell VM [2]; library: Spectrum,inactive: 0
Cc1ccnc(NS(=O)(=O)c2ccc(N)cc2)n1,neuronal differentiation score,ReNCell VM [1]; library: Spectrum,active: 2
same,dopaminergic neuron differentiation score,ReNCell VM [2]; library: Spectrum,inactive: 0
CN(C)CCOc1ccc(/C(=C(/CCCl)c2ccccc2)c2ccccc2)cc1 [Toremifene],neuronal differentiation score,ReNCell VM [1]; library: Prestwick,inactive: 0
same,dopaminergic neuron differentiation score,ReNCell VM [2]; library: Prestwick,inactive: 0
CC(=O)CCCCn1c(=O)c2c(ncn2C)n(C)c1=O,neuronal differentiation score,ReNCell VM [1]; library: Spectrum,inactive: 0
same,dopaminergic neuron differentiation score,ReNCell VM [2]; library: Spectrum,inactive: 0
Clc1ccc(CCCOCCCN2CCCCC2)cc1,neuronal differentiation score,ReNCell VM [1]; library: Tocriscreen,inactive: 0
same,dopaminergic neuron differentiation score,ReNCell VM [2]; library: Tocriscreen,inactive: 0
COc1c2c(cc3oc(CO)cc(=O)c13)O[C@H](C(C)(C)O)C2 [Cimifugin],neuronal differentiation score,ReNCell VM [1]; library: Phytochemical,inactive: 0
same,dopaminergic neuron differentiation score,ReNCell VM [2]; library: Phytochemical,inactive: 0
COc1cc(NS(C)(=O)=O)ccc1Nc1c2ccccc2nc2ccccc12 [Amsacrine hydrochloride],neuronal differentiation score,ReNCell VM [1]; library: LOPAC,inactive: 0
same,dopaminergic neuron differentiation score,ReNCell VM [2]; library: LOPAC,inactive: 0
C[C@]12C=CC(=O)C=C1CC[C@@H]1[C@@H]2[C@@H](O)C[C@@]2(C)[C@H]1CC[C@]2(O)C(=O)CO [Prednisolone],neuronal differentiation score,ReNCell VM [1]; library: Prestwick,inactive: 0
same,dopaminergic neuron differentiation score,ReNCell VM [2]; library: Prestwick,inactive: 0
CCN(CC)CCc1nc(-c2ccccc2)no1 [Oxalamine citrate salt],neuronal differentiation score,ReNCell VM [1]; library: Prestwick,inactive: 0
same,dopaminergic neuron differentiation score,ReNCell VM [2]; library: Prestwick,inactive: 0
OCCc1ccccc1,neuronal differentiation score,ReNCell VM [1]; library: Spectrum,inactive: 0
same,dopaminergic neuron differentiation score,ReNCell VM [2]; library: Spectrum,inactive: 0
O=c1c(O)cc([C@H]2Oc3cc(O)cc(O)c3C[C@H]2O)cc2c([C@H]3Oc4cc(O)cc(O)c4C[C@H]3O)cc(O)c(O)c12,neuronal differentiation score,ReNCell VM [1]; library: Spectrum,inactive: 0
same,dopaminergic neuron differentiation score,ReNCell VM [2]; library: Spectrum,inactive: 0
COC(=O)C1C(=O)C(C(=O)C=Cc2ccco2)C(=O)CC1(C)C (centres undefined),neuronal differentiation score,ReNCell VM [1]; library: Natural,inactive: -1
same,dopaminergic neuron differentiation score,ReNCell VM [2]; library: Natural,inactive: 1
CC1(O)CCC(C(C)(C)O)CC1 (centres undefined),neuronal differentiation score,ReNCell VM [1]; library: Spectrum,inactive: 0
same,dopaminergic neuron differentiation score,ReNCell VM [2]; library: Spectrum,inactive: 0
COC1=C(OC)C(=O)C(C/C=C(\C)CC/C=C(\C)CC/C=C(\C)CC/C=C(/C)CC/C=C(\C)CC/C=C(\C)CC/C=C(\C)CC/C=C(\C)CC/C=C(\C)CCC=C(C)C)=C(C)C1=O,neuronal differentiation score,ReNCell VM [1]; library: Spectrum,inactive: 0
same,dopaminergic neuron differentiation score,ReNCell VM [2]; library: Spectrum,inactive: 0
O=C1CCC[C@@H]2[C@H]3CCC[N+]4([O-])CCC[C@@H](CN12)[C@@H]34 (some centres undefined) [Oxymatrine],neuronal differentiation score,ReNCell VM [1]; library: Phytochemical,inactive: 1
same,dopaminergic neuron differentiation score,ReNCell VM [2]; library: Phytochemical,inactive: 0
CO[C@H]1/C=C/O[C@@]2(C)Oc3c(C)c(O)c4c(O)c(c(/C=N/N5CCN(C)CC5)c(O)c4c3C2=O)NC(=O)/C(C)=C\C=C\[C@H](C)[C@H](O)[C@@H](C)[C@@H](O)[C@@H](C)[C@H](OC(C)=O)[C@@H]1C,neuronal differentiation score,ReNCell VM [1]; library: Spectrum,inactive: 0
same,dopaminergic neuron differentiation score,ReNCell VM [2]; library: Spectrum,inactive: 0
CNC[C@H](O)[C@@H](O)[C@H](O)[C@H](O)CO,neuronal differentiation score,ReNCell VM [1]; library: Spectrum,inactive: 0
same,dopaminergic neuron differentiation score,ReNCell VM [2]; library: Spectrum,inactive: 0
CO[C@H]1O[C@@H]2O[C@@]3(C)CC[C@H]4[C@H](C)CC[C@@H]([C@H]1C)[C@@]24OO3,neuronal differentiation score,ReNCell VM [1]; library: Spectrum,inactive: 0
same,dopaminergic neuron differentiation score,ReNCell VM [2]; library: Spectrum,inactive: 0
O=c1onc2n1-c1cc(Br)ccc1OC2,neuronal differentiation score,ReNCell VM [1]; library: LOPAC,inactive: 0
same,dopaminergic neuron differentiation score,ReNCell VM [2]; library: LOPAC,inactive: 0
COc1ccc(-c2cc(=O)c3c(O)c(OC)c(OC)c(OC)c3o2)cc1OC,neuronal differentiation score,ReNCell VM [1]; library: Spectrum,inactive: 0
same,dopaminergic neuron differentiation score,ReNCell VM [2]; library: Spectrum,inactive: 0

# 19 entries from above, bar-delimited:
smiles | measurement | setting | value
COc1cc(OC)c2c(=O)cc(-c3ccccc3)oc2c1 | dopaminergic neuron differentiation score | ReNCell VM [2]; library: Spectrum | inactive: 0
CN1C(C)(C)CCCC1(C)C | dopaminergic neuron differentiation score | ReNCell VM [2]; library: Spectrum | inactive: 0
CCOC(=O)[C@@](C)(N)Cc1ccc(O)c(O)c1 [Methyldopate hydrochloride] | neuronal differentiation score | ReNCell VM [1]; library: Prestwick | inactive: 0
NC(=O)N1c2ccccc2CC(O)c2ccccc21 (centres undefined) [Licarbazepine] | neuronal differentiation score | ReNCell VM [1]; library: Tocriscreen | inactive: 0
Cl.N[C@@H](CCC(=O)O)C(=O)O [L-Glutamic acid hydrochloride] | dopaminergic neuron differentiation score | ReNCell VM [2]; library: LOPAC | inactive: 0
N[C@@H](Cc1ccc(O)cc1)C(=O)O | neuronal differentiation score | ReNCell VM [1]; library: Spectrum | inactive: 0
Cc1ccnc(NS(=O)(=O)c2ccc(N)cc2)n1 | neuronal differentiation score | ReNCell VM [1]; library: Spectrum | active: 2
CN(C)CCOc1ccc(/C(=C(/CCCl)c2ccccc2)c2ccccc2)cc1 [Toremifene] | dopaminergic neuron differentiation score | ReNCell VM [2]; library: Prestwick | inactive: 0
COc1c2c(cc3oc(CO)cc(=O)c13)O[C@H](C(C)(C)O)C2 [Cimifugin] | dopaminergic neuron differentiation score | ReNCell VM [2]; library: Phytochemical | inactive: 0
COc1cc(NS(C)(=O)=O)ccc1Nc1c2ccccc2nc2ccccc12 [Amsacrine hydrochloride] | dopaminergic neuron differentiation score | ReNCell VM [2]; library: LOPAC | inactive: 0
C[C@]12C=CC(=O)C=C1CC[C@@H]1[C@@H]2[C@@H](O)C[C@@]2(C)[C@H]1CC[C@]2(O)C(=O)CO [Prednisolone] | neuronal differentiation score | ReNCell VM [1]; library: Prestwick | inactive: 0
same | dopaminergic neuron differentiation score | ReNCell VM [2]; library: Prestwick | inactive: 0
CCN(CC)CCc1nc(-c2ccccc2)no1 [Oxalamine citrate salt] | neuronal differentiation score | ReNCell VM [1]; library: Prestwick | inactive: 0
OCCc1ccccc1 | dopaminergic neuron differentiation score | ReNCell VM [2]; library: Spectrum | inactive: 0
O=c1c(O)cc([C@H]2Oc3cc(O)cc(O)c3C[C@H]2O)cc2c([C@H]3Oc4cc(O)cc(O)c4C[C@H]3O)cc(O)c(O)c12 | dopaminergic neuron differentiation score | ReNCell VM [2]; library: Spectrum | inactive: 0
O=C1CCC[C@@H]2[C@H]3CCC[N+]4([O-])CCC[C@@H](CN12)[C@@H]34 (some centres undefined) [Oxymatrine] | dopaminergic neuron differentiation score | ReNCell VM [2]; library: Phytochemical | inactive: 0
CO[C@H]1/C=C/O[C@@]2(C)Oc3c(C)c(O)c4c(O)c(c(/C=N/N5CCN(C)CC5)c(O)c4c3C2=O)NC(=O)/C(C)=C\C=C\[C@H](C)[C@H](O)[C@@H](C)[C@@H](O)[C@@H](C)[C@H](OC(C)=O)[C@@H]1C | neuronal differentiation score | ReNCell VM [1]; library: Spectrum | inactive: 0
O=c1onc2n1-c1cc(Br)ccc1OC2 | dopaminergic neuron differentiation score | ReNCell VM [2]; library: LOPAC | inactive: 0
COc1ccc(-c2cc(=O)c3c(O)c(OC)c(OC)c(OC)c3o2)cc1OC | dopaminergic neuron differentiation score | ReNCell VM [2]; library: Spectrum | inactive: 0
